Results from the supplement of paper PMC10849652.
This is one part of the list.

Chains of the proteins cited; added tags and fusions are not shown. Lines headed by an entry give the natural chain unless they say otherwise; changes in a name come on top.
UniProt Q9P0J7: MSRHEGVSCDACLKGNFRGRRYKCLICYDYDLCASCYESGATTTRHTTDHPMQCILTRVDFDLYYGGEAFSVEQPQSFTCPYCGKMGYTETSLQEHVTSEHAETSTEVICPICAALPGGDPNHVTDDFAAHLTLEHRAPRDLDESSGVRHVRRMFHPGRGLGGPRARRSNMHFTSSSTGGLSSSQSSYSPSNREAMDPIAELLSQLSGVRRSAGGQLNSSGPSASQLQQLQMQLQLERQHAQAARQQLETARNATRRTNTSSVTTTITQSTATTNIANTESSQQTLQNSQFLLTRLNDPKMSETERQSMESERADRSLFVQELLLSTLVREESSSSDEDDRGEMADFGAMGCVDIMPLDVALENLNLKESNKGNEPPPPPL
UniProt Q9UK76: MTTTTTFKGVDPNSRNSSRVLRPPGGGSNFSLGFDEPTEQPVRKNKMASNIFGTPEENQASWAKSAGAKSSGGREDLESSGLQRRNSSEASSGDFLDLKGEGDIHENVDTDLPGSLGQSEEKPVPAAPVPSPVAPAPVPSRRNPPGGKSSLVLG
UniProt Q15652: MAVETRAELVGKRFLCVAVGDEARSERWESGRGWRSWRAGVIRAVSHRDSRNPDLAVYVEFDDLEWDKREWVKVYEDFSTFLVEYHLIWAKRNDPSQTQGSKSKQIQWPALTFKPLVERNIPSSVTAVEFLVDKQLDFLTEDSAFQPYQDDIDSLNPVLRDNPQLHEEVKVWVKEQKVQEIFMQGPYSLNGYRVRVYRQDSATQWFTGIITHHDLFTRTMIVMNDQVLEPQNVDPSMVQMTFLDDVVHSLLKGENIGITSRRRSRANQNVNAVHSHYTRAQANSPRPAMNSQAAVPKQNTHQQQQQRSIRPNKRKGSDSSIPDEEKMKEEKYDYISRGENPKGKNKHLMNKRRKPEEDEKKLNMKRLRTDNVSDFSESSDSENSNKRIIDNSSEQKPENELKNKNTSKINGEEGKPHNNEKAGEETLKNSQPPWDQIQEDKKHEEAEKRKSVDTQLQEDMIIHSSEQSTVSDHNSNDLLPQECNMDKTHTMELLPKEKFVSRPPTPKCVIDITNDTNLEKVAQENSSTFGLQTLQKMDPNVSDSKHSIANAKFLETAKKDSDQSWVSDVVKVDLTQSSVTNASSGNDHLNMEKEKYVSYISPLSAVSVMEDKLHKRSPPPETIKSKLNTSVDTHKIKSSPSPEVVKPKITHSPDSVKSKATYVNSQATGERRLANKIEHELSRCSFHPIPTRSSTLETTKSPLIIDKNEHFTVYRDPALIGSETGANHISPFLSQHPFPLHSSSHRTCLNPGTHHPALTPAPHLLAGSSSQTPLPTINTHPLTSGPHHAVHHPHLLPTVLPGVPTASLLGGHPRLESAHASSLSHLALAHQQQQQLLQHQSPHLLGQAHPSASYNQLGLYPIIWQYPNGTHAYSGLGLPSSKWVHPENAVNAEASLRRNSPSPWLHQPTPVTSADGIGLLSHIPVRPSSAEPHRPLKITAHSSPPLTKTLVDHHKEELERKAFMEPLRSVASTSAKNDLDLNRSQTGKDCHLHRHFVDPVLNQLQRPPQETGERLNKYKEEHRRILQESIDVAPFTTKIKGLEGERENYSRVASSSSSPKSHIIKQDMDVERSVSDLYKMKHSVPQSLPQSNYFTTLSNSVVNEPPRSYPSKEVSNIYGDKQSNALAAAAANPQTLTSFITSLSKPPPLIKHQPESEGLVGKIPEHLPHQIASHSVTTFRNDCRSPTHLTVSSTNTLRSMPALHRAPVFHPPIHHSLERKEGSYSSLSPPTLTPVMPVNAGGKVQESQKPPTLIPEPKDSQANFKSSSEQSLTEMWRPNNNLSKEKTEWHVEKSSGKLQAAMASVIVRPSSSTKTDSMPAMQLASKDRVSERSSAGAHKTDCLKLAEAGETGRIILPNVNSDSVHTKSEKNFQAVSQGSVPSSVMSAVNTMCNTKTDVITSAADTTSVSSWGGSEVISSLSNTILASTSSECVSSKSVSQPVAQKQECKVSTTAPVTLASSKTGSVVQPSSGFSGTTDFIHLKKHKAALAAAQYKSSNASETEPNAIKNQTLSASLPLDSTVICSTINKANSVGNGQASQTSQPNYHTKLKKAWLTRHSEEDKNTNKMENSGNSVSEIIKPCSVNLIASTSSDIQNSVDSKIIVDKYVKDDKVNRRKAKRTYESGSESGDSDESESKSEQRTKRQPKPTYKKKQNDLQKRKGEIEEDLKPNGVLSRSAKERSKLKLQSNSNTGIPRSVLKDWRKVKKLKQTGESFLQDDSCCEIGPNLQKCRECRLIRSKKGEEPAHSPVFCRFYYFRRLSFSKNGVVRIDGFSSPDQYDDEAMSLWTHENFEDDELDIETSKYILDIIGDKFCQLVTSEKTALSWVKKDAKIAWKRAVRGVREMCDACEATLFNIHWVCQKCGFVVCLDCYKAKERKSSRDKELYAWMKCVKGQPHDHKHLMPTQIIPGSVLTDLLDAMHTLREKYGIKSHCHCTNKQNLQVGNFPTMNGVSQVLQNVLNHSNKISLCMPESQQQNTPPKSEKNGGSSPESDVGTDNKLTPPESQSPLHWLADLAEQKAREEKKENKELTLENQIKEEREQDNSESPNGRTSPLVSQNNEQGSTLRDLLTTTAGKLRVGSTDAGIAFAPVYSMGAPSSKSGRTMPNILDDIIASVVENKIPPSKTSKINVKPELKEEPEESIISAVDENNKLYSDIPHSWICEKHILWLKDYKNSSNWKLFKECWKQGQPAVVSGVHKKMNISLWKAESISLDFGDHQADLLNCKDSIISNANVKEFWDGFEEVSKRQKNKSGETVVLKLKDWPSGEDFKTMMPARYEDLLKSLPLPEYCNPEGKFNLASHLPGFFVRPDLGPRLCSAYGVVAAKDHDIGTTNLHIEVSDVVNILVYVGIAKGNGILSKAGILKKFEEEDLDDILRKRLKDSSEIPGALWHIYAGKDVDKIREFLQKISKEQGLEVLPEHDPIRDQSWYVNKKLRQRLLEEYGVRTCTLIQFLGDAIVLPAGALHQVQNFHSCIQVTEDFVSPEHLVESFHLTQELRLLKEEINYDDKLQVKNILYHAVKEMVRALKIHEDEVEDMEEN
UniProt Q8N5M9: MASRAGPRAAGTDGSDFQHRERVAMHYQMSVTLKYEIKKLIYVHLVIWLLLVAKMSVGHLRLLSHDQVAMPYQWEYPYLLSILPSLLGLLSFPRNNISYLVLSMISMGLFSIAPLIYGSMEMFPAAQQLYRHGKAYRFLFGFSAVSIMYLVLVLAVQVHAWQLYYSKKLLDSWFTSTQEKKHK
UniProt P50053: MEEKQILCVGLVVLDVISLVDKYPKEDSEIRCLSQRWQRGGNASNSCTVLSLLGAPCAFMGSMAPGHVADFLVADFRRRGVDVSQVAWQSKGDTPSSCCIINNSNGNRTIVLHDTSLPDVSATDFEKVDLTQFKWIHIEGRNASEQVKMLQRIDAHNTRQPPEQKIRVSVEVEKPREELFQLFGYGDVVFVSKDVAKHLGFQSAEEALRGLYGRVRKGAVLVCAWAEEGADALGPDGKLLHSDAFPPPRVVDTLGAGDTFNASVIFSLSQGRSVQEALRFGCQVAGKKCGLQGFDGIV
UniProt Q9P206: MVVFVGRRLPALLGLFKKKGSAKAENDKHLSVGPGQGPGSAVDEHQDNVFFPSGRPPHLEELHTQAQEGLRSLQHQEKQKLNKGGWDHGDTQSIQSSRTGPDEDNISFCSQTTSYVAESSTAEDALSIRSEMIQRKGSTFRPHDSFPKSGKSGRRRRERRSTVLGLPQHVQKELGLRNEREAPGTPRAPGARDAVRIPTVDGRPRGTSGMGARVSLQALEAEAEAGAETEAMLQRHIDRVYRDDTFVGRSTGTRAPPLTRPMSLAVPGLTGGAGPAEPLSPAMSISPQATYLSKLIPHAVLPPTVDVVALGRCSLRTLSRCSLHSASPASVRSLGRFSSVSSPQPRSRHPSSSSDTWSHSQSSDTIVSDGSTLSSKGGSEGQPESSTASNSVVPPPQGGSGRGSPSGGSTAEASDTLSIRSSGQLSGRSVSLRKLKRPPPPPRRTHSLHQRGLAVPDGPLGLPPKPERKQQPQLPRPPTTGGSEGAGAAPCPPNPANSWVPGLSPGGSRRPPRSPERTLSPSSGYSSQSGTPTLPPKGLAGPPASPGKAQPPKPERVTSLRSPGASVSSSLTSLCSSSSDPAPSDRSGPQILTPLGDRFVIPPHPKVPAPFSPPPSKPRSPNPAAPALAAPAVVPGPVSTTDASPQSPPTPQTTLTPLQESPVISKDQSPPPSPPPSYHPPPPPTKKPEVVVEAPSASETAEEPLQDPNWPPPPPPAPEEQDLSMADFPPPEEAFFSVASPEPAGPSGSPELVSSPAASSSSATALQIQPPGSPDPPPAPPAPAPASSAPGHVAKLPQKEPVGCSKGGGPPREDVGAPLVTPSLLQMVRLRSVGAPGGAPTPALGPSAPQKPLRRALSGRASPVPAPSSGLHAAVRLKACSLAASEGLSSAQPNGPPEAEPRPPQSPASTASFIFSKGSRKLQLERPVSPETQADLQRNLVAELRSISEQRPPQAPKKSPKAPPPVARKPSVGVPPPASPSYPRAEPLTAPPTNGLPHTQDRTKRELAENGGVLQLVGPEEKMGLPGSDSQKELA
UniProt Q9Y6Y0: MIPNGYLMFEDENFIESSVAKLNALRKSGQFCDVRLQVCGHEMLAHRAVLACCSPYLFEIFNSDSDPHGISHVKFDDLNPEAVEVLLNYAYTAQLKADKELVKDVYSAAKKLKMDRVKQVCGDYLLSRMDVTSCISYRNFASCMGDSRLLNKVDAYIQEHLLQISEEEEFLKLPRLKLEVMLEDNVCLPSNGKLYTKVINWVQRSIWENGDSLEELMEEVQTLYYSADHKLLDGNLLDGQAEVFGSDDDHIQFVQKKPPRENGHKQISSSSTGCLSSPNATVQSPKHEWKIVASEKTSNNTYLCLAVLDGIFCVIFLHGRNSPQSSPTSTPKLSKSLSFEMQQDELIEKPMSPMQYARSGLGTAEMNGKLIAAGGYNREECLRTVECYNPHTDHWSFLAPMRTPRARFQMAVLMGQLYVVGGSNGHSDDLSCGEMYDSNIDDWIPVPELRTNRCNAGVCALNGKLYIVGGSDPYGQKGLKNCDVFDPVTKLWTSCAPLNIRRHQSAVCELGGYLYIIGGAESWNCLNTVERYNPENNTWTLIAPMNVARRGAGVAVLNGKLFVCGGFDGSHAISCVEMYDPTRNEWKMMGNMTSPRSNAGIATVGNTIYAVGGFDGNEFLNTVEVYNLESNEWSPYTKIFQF
UniProt P33176: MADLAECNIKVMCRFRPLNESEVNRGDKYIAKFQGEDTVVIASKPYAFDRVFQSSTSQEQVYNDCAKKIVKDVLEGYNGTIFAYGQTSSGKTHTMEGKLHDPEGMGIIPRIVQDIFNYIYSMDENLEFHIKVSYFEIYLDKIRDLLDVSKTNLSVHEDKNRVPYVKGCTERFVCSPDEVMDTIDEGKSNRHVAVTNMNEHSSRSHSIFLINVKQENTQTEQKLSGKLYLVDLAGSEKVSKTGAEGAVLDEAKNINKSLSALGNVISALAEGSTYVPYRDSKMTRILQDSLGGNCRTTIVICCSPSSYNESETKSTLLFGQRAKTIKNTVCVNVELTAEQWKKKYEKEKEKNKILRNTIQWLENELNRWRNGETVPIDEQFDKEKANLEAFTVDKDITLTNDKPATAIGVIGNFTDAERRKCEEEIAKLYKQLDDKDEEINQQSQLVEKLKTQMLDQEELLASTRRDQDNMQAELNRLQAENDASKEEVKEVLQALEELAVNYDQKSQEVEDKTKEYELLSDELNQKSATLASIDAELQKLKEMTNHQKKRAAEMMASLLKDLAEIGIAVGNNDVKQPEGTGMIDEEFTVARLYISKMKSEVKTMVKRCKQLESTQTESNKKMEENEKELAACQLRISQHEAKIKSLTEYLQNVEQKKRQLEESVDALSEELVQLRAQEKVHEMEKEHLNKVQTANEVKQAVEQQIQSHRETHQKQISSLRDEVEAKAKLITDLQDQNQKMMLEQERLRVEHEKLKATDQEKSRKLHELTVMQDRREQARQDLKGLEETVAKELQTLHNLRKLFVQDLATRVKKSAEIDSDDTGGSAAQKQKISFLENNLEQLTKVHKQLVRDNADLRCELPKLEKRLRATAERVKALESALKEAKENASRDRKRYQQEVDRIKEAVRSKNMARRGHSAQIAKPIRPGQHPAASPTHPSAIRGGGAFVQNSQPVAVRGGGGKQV
UniProt Q7L273: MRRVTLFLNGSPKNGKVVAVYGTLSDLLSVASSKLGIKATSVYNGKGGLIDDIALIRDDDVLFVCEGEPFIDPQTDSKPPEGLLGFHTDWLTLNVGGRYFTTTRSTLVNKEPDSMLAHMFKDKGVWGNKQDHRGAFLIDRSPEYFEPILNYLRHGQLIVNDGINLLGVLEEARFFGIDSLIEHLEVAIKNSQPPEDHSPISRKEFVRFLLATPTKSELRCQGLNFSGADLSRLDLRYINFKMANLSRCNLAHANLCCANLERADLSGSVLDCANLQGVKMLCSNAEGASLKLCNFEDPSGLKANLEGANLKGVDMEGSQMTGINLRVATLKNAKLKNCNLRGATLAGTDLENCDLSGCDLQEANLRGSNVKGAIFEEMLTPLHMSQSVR

These targets were tested with CCCS(=O)(=O)Nc1ccc(F)c(C(=O)c2c[nH]c3ncc(Cl)cc23)c1F (assay: log2 fold change, soluble protein after heating vs DMSO (PISA); higher = thermal stabilisation; K562 cells, 10 uM, 30 min; active = over 0.2 and 3.5 SD of the protein, either way, in both replicates (recomputed)).
Method in brief: (§1)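 Soluble protein was quantified by TMTpro 16plex LC-MS/MS after channel sums were equalised. It was obtained as the supernatant after 21,000xg for 90 min from pooled aliquots of K562 cells (2×10^6 cells/mL, 10 μM compound, 30 min) heated for 3 min across 48°C-58°C and extracted in PBS with 0.5% NP-40 at 4°C. Thermal stability values are relative to control samples and come from duplicates. They are given as log2 fold changes.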

log2 fold change, inactive:
KATNB1 (UniProt Q9BVA0) 0.029
KMT2D isoform 3 (UniProt O14686) 0.006
KCMF1 (UniProt Q9P0J7) 0.203
JPT1 (UniProt Q9UK76) -0.039
JUND (UniProt P17535) 0.019
JMJD1C (UniProt Q15652) 0.013
KDM8 isoform 3 (UniProt Q8N371) 0.014
JAGN1 (UniProt Q8N5M9) -0.042
KIDINS220 (UniProt Q9ULH0) -0.022
KCTD15 (UniProt Q96SI1) -0.033
KCTD3 (UniProt Q9Y597) -0.031
KIAA1143 (UniProt Q96AT1) -0.092
KHK isoform 2 (UniProt P50053) 0.041
KIF23 (UniProt Q02241) -0.211
KIAA1522 isoform 2 (UniProt Q9P206) 0.007
KLF3 (UniProt P57682) -0.033
KIF2A isoform 4 (UniProt O00139) 0.026
KIF5A (UniProt Q12840) -0.007
IVNS1ABP (UniProt Q9Y6Y0) 0.021
KPNA3 (UniProt O00505) 0.039
KIAA0319L (UniProt Q8IZA0) 0.028
KCNAB2 (UniProt Q13303) 0.026
KAZN isoform 3 (UniProt Q674X7) -0.042
KNSTRN (UniProt Q9Y448) -0.027
KDM5C (UniProt P41229) 0.119
KLC1 isoform 6 (UniProt Q07866) 0.026
KBTBD2 (UniProt Q8IY47) 0.002
KLHL11 (UniProt Q9NVR0) -0.001
KDSR (UniProt Q06136) 0.017
KIF5B (UniProt P33176) 0.02
KIAA0100 (UniProt Q14667) -0.035
KHSRP (UniProt Q92945) -0.034
KCTD9 (UniProt Q7L273) 0.028

These targets were tested with CCCc1cc(C)[nH]c(=O)c1CNC(=O)c1cc(-c2ccnc(N3CCN(C)CC3)c2)cc2c1cnn2C(C)C in the same assay as above.
Method in brief: as §1

log2 fold change, inactive:
KATNB1 (UniProt Q9BVA0) 0.042
KMT2D isoform 3 (UniProt O14686) -0.052
KCMF1 (UniProt Q9P0J7) 0.002
JPT1 (UniProt Q9UK76) -0.018
JUND (UniProt P17535) -0.002
JMJD1C (UniProt Q15652) -0.03
KDM8 isoform 3 (UniProt Q8N371) -0.149
JAGN1 (UniProt Q8N5M9) -0.021
KIDINS220 (UniProt Q9ULH0) 0.002
KCTD15 (UniProt Q96SI1) -0.041
KCTD3 (UniProt Q9Y597) -0.025
KIAA1143 (UniProt Q96AT1) -0.002
KHK isoform 2 (UniProt P50053) -0.28
KIF23 (UniProt Q02241) -0.072
KIAA1522 isoform 2 (UniProt Q9P206) 0.152
KLF3 (UniProt P57682) 0
KIF2A isoform 4 (UniProt O00139) 0.094
KIF5A (UniProt Q12840) -0.001
IVNS1ABP (UniProt Q9Y6Y0) 0.001
KPNA3 (UniProt O00505) -0.009
KIAA0319L (UniProt Q8IZA0) -0.002
KCNAB2 (UniProt Q13303) -0.083
KAZN isoform 3 (UniProt Q674X7) -0.026
KNSTRN (UniProt Q9Y448) 0.072
KDM5C (UniProt P41229) 0.07
KLC1 isoform 6 (UniProt Q07866) 0
KBTBD2 (UniProt Q8IY47) -0.006
KLHL11 (UniProt Q9NVR0) 0.044
KDSR (UniProt Q06136) -0.025
KIF5B (UniProt P33176) -0.001
KIAA0100 (UniProt Q14667) -0.046
KHSRP (UniProt Q92945) -0.029
KCTD9 (UniProt Q7L273) 0.033

Each target was assayed with CCN(CC)Cc1ccc2cc(COC(=O)Nc3ccc(C(=O)NO)cc3)ccc2c1 [givinostat] in the same assay as above.
Method in brief: as §1

log2 fold change, inactive:
KATNB1 (UniProt Q9BVA0) 0.017
KMT2D isoform 3 (UniProt O14686) -0.143
KCMF1 (UniProt Q9P0J7) 0.016
JPT1 (UniProt Q9UK76) -0.002
JUND (UniProt P17535) -0.053
JMJD1C (UniProt Q15652) 0.082
KDM8 isoform 3 (UniProt Q8N371) 0
JAGN1 (UniProt Q8N5M9) -0.06
KIDINS220 (UniProt Q9ULH0) -0.027
KCTD15 (UniProt Q96SI1) -0.031
KCTD3 (UniProt Q9Y597) -0.033
KIAA1143 (UniProt Q96AT1) 0.01
KHK isoform 2 (UniProt P50053) -0.013
KIF23 (UniProt Q02241) 0.183
KIAA1522 isoform 2 (UniProt Q9P206) 0.078
KLF3 (UniProt P57682) 0.136
KIF2A isoform 4 (UniProt O00139) 0.048
KIF5A (UniProt Q12840) 0.011
IVNS1ABP (UniProt Q9Y6Y0) 0.107
KPNA3 (UniProt O00505) 0.032
KIAA0319L (UniProt Q8IZA0) -0.033
KCNAB2 (UniProt Q13303) -0.007
KAZN isoform 3 (UniProt Q674X7) -0.038
KNSTRN (UniProt Q9Y448) 0.014
KDM5C (UniProt P41229) 0.005
KLC1 isoform 6 (UniProt Q07866) -0.003
KBTBD2 (UniProt Q8IY47) -0.044
KLHL11 (UniProt Q9NVR0) -0.012
KDSR (UniProt Q06136) 0.015
KIF5B (UniProt P33176) -0.024
KIAA0100 (UniProt Q14667) 0.21
KHSRP (UniProt Q92945) -0.015
KCTD9 (UniProt Q7L273) 0.073
